Test results published in article PMC8591604 (Journal of Medicinal Chemistry, 2021).

Test: general procedure: Fmoc solid-phase peptide synthesis; Rink amide MBHA resin (0.65 mmol/g, 100–200 mesh)
Conditions: whole synthesis, RP-HPLC, Phenomenex Kinetex XB-C18 column, water/acetonitrile with 0.05% TFA

Row | Substance | final HPLC purity [%]
1 | CF-GLN- Y -IDLDL | 99
2 | CF-GLN-F2Pmp-IDLDW | 97
3 | CF-GLN-pY -IDLDL | 93
4 | CF-GLN-pY -IDLDW | 96
5 | CF-GLN-pY -IDLEW | 97
6 | GLN- F2Pmp-IDLDW | 97
7 | GLN-pY -IDLDL | 95
8 | LN-pY -IDLDF | 95
9 | LN-pY -IDLDL | 92
10 | LN-pY -IDLDW | 95
11 | LN-pY -IDLEW | 98
12 | N-pY -IDLDL | 92
